Laboratory results: publication PMC10622843
Results are given in words; binding and its absence hold for the method and conditions named. Binding seen in cells or lysates may run through a third protein. Some entries that bind do so weakly or less than the wild type.

Protein sequences, listed by entry. Tags and fused reporters are not part of them. Lines headed by an entry give the natural chain unless they say otherwise; changes in a name come on top.
UniProt Q9NQC3: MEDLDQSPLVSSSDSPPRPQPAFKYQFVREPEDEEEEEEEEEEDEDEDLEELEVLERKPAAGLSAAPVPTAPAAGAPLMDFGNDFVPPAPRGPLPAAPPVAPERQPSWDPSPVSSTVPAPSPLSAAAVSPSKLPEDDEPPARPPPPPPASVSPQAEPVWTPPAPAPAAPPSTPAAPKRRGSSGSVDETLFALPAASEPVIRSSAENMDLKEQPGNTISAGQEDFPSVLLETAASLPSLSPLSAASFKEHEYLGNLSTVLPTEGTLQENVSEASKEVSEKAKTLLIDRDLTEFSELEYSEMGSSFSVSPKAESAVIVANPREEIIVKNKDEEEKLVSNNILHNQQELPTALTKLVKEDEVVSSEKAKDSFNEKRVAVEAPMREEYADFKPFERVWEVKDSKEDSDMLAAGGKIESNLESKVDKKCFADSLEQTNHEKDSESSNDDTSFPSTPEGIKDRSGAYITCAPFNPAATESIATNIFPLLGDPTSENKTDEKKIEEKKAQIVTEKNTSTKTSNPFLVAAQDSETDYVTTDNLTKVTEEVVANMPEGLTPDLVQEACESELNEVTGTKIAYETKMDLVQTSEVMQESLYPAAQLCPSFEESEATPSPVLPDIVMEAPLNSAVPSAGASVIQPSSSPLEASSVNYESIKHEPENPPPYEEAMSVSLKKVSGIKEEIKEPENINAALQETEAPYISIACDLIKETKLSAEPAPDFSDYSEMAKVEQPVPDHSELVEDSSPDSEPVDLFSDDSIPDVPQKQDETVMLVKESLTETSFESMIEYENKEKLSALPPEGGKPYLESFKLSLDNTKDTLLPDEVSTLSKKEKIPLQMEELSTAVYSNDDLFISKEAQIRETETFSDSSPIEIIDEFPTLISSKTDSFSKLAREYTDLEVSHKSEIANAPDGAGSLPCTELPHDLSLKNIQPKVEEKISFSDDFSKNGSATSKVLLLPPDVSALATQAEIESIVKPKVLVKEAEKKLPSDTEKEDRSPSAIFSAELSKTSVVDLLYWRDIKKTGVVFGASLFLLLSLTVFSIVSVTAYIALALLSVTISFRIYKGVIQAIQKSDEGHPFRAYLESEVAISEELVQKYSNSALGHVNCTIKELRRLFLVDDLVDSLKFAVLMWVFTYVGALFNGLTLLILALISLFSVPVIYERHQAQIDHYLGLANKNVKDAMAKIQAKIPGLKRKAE
UniProt P11142: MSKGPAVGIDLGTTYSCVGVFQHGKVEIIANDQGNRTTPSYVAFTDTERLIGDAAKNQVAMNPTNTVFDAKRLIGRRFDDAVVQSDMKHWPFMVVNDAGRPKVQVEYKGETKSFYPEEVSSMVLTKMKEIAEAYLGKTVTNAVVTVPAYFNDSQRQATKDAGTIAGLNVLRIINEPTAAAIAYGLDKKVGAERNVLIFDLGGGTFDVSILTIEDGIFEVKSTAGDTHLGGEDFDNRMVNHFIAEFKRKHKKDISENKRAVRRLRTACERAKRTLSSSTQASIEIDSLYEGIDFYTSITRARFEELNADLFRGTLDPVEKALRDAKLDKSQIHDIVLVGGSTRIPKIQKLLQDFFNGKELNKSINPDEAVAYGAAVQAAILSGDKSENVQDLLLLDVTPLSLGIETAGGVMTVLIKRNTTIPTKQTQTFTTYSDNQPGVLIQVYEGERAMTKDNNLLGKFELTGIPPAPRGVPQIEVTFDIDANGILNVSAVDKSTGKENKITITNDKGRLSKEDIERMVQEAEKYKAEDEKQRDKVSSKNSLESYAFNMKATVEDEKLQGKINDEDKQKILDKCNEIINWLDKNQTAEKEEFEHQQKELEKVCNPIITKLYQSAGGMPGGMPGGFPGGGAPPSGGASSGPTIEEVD

Columns and labels:
[1] = target: FLAG-tagged NogoA G214A-N215A mutant (human) (UniProt Q9NQC3); experiment: co-IP; anti-FLAG immunoprecipitation from lysate of HEK293T cells 36 h after transfection; immunoblot with anti-HSPA8 and anti-FLAG
[2] = target: FLAG-tagged NogoA WT (human) (UniProt Q9NQC3); experiment: as above

HSPA8, endogenous in HEK293T cells (from UniProt P11142 1-646)
binding [1]: no binding | binding [2]: binds
